# Screen size: about 360,000 compounds; about 7,500 (2.1%) were called active. The inconclusive results got no clear call from the source; some entries with a clear call stand among them for comparison. The call rests on the fitted dose curve; in most records, active means well fitted inhibition curve with a large enough effect; inconclusive means small, poorly fitted or top-dose-only effect, or effect the other way; inactive means flat fitted curve, though single readings scatter. Potencies beside an inconclusive call are fits to weak or partial responses and may not hold up.
# Experiment: Nrf2 qHTS screen for inhibitors; further: nearly all actives have a fitted effect of over 60% in size
# Details: A549 ARE-Fluc reporter, luciferase luminescence, 18-24 h; series mostly up to 46 µM
# Summary of the method: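 A549 ARE_Fluc cells, 5000/well, 5% FBS OPTI-MEM; compounds in dose-response, 18-24 h at 37 °C/5% CO2; CellTiter-Fluor viability read (Ex 405/Em 525), then BugLite luciferase luminescence = Nrf2 activity.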
# Potency means the concentration at half of the fitted maximal effect.
row,SMILES,Potency
1,COc1ccc(OC)c(CCNC(=O)c2c(C)nn(-c3ccc(F)cc3)c2-n2cccc2)c1,"inconclusive: 29.1 µM [falling, single point]"
2,COc1ccc(Cn2nnc(C(=O)Nc3cc(OC)ccc3OC)c2N)cc1,"inconclusive: 0.82 µM [falling, partial curve, poor fit]"
3,COCCCNC(=O)C1CCN(Cc2nc(-c3ccc(OC)c(OC)c3)oc2C)CC1,inactive
4,Cc1nnc(NC(=O)Cc2ccc(OCc3c(C)noc3C)cc2)s1,"inconclusive: 0.184 µM [falling, partial curve, poor fit]"
5,O=C(CSc1nc2ccccc2[nH]1)c1c[nH]c2ccccc12,"inconclusive: 29.1 µM [activator, single point]"
6,Cn1c(C(=O)NCCCN2CCN(c3ccccc3F)CC2)cc2c(=O)[nH]c3ccccc3c21,"inconclusive: 7.31 µM [falling, partial curve, poor fit]"
7,O=C(CSc1nnc(-c2cc3ccccc3cc2O)n1Cc1ccco1)c1ccc(F)cc1,active: 23.1 µM
8,Cc1nnc(SCC2=C(C(=O)O)N3C(=O)C(NC(=O)Cn4nc(C(F)F)cc4C)C3SC2)s1 (stereo not given),inactive
9,N#CCC(=O)N/N=C/c1cccc(Oc2ccccc2)c1,"inconclusive: 13 µM [activator, partial curve, poor fit]"
10,COc1cccc(NC(=O)CSc2nc3ccccc3n2C)c1,"inconclusive: 2.59 µM [falling, partial curve, poor fit]"
11,Brc1ccc(-c2csc(-c3ccncc3)n2)cc1,"inconclusive: 11.6 µM [activator, partial curve]"
12,COc1cc2cnc(-c3ccccc3)c(-c3ccc(C#N)cc3)c2cc1OC,"inconclusive: 29.1 µM [falling, single point]"
13,C#CC(=O)N(c1ccc(OC)c(OC)c1)C(C(=O)NC1CCCC1)c1cccs1 (stereo not given),active: 23.1 µM
14,CCOc1ccc(NC(=O)c2c(NC(=O)Cc3ccccc3)sc3c2CCC(C)C3)cc1 (stereo not given),inactive
15,CS(=O)(=O)NCCOc1ccc(S(=O)(=O)NCCOc2ccccc2)cc1,"inconclusive: 23.1 µM [falling, single point]"
16,COc1ccc(OC)c(NC(=O)CN(C)S(=O)(=O)c2ccc3[nH]c4c(c3c2)CCCC4)c1,"inconclusive: 25.9 µM [falling, partial curve, poor fit]"
17,Cc1cc(Cl)c(S(N)(=O)=O)cc1OCC(=O)NC1CCCCC1,inactive
18,CCC(=O)c1ccc(OCc2ccc(C(=O)OC)cc2)cc1,"inconclusive: 10.3 µM [activator, partial curve]"
19,CCNS(=O)(=O)c1ccc(CCC(=O)N2CCN(c3ccccc3)CC2)cc1,"inconclusive: 10.3 µM [falling, partial curve, poor fit]"
20,Oc1ccc(CNc2ccccc2Br)c2cccnc12,"inconclusive: 20.6 µM [falling, single point]"
21,CCn1c(-c2cc(Br)cc(OC)c2O)nc2cc(S(=O)(=O)N(C)C)ccc21,"inconclusive: 29.1 µM [falling, single point]"
22,Clc1ccc(Cc2ccccn2)cc1,"inconclusive: 10.3 µM [activator, partial curve]"

row,SMILES,Potency
1,COc1ccc(-c2csc(Cc3nc(O)cs3)n2)cc1,"inconclusive: 11.6 µM [activator, partial curve]"
2,COc1ccc(CNC(=O)Nc2ccc3c(c2)N(C)C(=O)c2ccccc2S3)cc1,"inconclusive: 13 µM [falling, single point]"
3,COc1cccc(OCC(=O)NC2CCCCCC2)c1,"inconclusive: 9.2 µM [activator, partial curve]"
4,CN(c1ccccc1)c1ncnc2c1ncn2C,"inconclusive: 3.66 µM [activator, single point]"
5,O=C(Nc1cccc2ccccc12)c1ccc([N+](=O)[O-])o1,inactive
6,O=C(CN1C(=O)COc2ccc(S(=O)(=O)N3CCCC3)cc21)N1CCN(c2ccccc2)CC1,inactive
7,Brc1ccc(-c2nn3c(Cc4ccccc4)nnc3s2)o1,"inconclusive: 35.5 µM [falling, single point]"
8,O=C(Nc1cccc(F)c1)Nc1ccc(Cl)cn1,"inconclusive: 25.9 µM [activator, single point]"
9,CCc1cc2c(NCCN3CCCCC3)ncnc2s1,"inconclusive: 25.9 µM [activator, single point]"
10,O=C(NNC(=S)NC1CCCCC1)c1ccccc1O,"inconclusive: 25.9 µM [falling, single point]"
11,COc1ccc2c(Sc3ccccc3)c(C(=O)NCCc3ccc(Cl)cc3)[nH]c2c1,"inconclusive: 29.1 µM [falling, single point]"
12,O=C(CSc1ncc2c(n1)-c1ccc(Cl)cc1N(Cc1ccccc1)S2(=O)=O)Nc1ccc(F)c(F)c1,"inconclusive: 18.4 µM [activator, single point]"
13,Nc1ccc(S(=O)(=O)Nc2nccc(/C=C/c3cccc(Br)c3)n2)cc1,"inconclusive: 18.4 µM [falling, single point]"
14,CCOC(=O)C1CCCN(CC(=O)N2CCCc3c2c(=O)oc2ccc(OCc4ccccc4)cc32)C1 (stereo not given),"inconclusive: 4.11 µM [activator, partial curve, poor fit]"
15,COc1ccc(CNC(=O)C[C@H]2C[C@H](C(=O)N3CCCCC3)[C@@]3(C)c4[nH]c5cc(-c6ccco6)ccc5c4CCN3C2=O)cc1OC,inactive
16,O=C(c1ccccc1)C(CCC(CN1CCOCC1)C(=O)c1ccccc1)CN1CCOCC1 (stereo not given),active: 23.1 µM
17,C=CCn1c(SCc2c(C)noc2C)nc2sc3c(c2c1=O)CCCCC3,active: 16.4 µM
18,CCN1CCN(CCCNC(=O)c2cc3c(s2)-c2ccccc2OC3)CC1,inactive
19,Cc1ccc(S(=O)(=O)N2CCN(CC(=O)Nc3ccc([N+](=O)[O-])cc3)CC2)cc1C,inactive
20,O=C1CC(c2ccccc2)Cc2nc(N3CCc4ccccc4C3)ncc21 (stereo not given),"inconclusive: 0.0103 µM [falling, full curve, poor fit]"
21,NC(=O)NC(=O)CC1S/C(=N/N=C2/NC(=O)CS2)NC1=O (stereo not given),"inconclusive: 29.1 µM [falling, single point]"
22,CC(C)OCCCN(C)C1CCN(S(=O)(=O)c2ccc(-c3cc(C(F)(F)F)no3)s2)CC1,"inconclusive: 3.66 µM [falling, full curve, poor fit]"

row,SMILES,Potency
1,O=C(C1CCN(S(=O)(=O)c2ccccc2)CC1)N1CCN(Cc2ccc3c(c2)OCO3)CC1,inactive
2,Brc1ccc2[nH]c3c(NCc4ccccn4)ncnc3c2c1,"inconclusive: 20.6 µM [falling, partial curve]"
3,CN(C)c1ccc(-c2nc3cc(N)ccc3o2)cc1,"inconclusive: 29.1 µM [falling, single point]"
4,CC(=O)c1cccc(NC(=O)c2nc3ccccc3n(C)c2=O)c1,"inconclusive: 11.6 µM [activator, single point]"
5,O=C(Nc1cccc(S(=O)(=O)N2CCCCC2)c1)c1ccc2ccccc2n1,"inconclusive: 32.6 µM [falling, partial curve, poor fit]"
6,Cc1c(C(=O)NCc2cccnc2)oc2ccccc12,"inconclusive: 4.11 µM [falling, partial curve, poor fit]"
7,Cc1cc(Br)ccc1NC(=O)CN(C)C(=O)c1cc([N+](=O)[O-])ccc1N1CCOCC1,"inconclusive: 8.2 µM [falling, partial curve, poor fit]"
8,COc1ccc(CN2CCN(S(=O)(=O)c3ccccc3)CC2)c(OC)c1OC,"inconclusive: 14.6 µM [falling, partial curve, poor fit]"
9,CN(c1ccccc1)S(=O)(=O)c1cccc(NC(=O)c2ccncc2)c1,"inconclusive: 29.1 µM [falling, single point]"
10,Cc1nn2cc(-c3cccc(Cl)c3)cnc2c1Cl,"inconclusive: 16.4 µM [activator, partial curve, poor fit]"
11,COc1cccc(CN2C(=O)c3ccccc3Sc3ccc(C(=O)N(C)Cc4ccccc4)cc32)c1,"inconclusive: 20.6 µM [falling, single point]"
12,Cc1cc(C)cc(OCC(=O)OCC(=O)Nc2c(C)n(C)n(-c3ccccc3)c2=O)c1,"inconclusive: 0.82 µM [falling, full curve]"
13,Cc1ccc2nc(SC(C)C(=O)Nc3cccc([N+](=O)[O-])c3)[nH]c2c1 (stereo not given),active: 20.6 µM
14,COc1ccc(OCC(=O)NCCc2c[nH]c3ccccc23)cc1,"inconclusive: 29.1 µM [activator, single point]"
15,CCOc1cc(Cl)c(S(=O)(=O)NCc2cccnc2)cc1Cl,"inconclusive: 29.1 µM [falling, single point]"
16,N/C(CSc1ccc(Cl)cc1)=N\NC(=O)c1ccncc1,"inconclusive: 20.6 µM [falling, partial curve, poor fit]"
17,CCCCOC(=O)Nc1nnc(CC)s1,"inconclusive: 5.17 µM [activator, partial curve, poor fit]"
18,COc1cc(C(=O)Nc2cccc(-c3nc4cc(C)cc(C)c4o3)c2)cc(OC)c1OC,"inconclusive: 13 µM [falling, partial curve]"
19,CCOC(=O)c1c(CN2CCCCC2)n(C)c2cc(Br)c(OC)cc12,"inconclusive: 35.5 µM [falling, single point]"
20,NC(=O)c1cc2c(s1)-c1cc(Cl)ccc1SC2,"inconclusive: 16.4 µM [falling, single point]"
21,COc1ccc(C(CC(=O)c2ccc(C)cc2)C(C#N)C#N)cc1OC (stereo not given),"inconclusive: 29.1 µM [falling, single point]"
